Test results reported in article PMC4901263.
These are yes or no findings as the source states them, for the method shown. For part of these data: In cells and extracts the contact can be indirect. Some entries that bind do so weakly or less than the wild type. Sequences can lack the tags named with a protein.

Assays:
[1] = biological target: NS5A from genotype 1b (HCV-Con1), two-hybrid fusion (hepatitis C virus Con1 (genotype 1b)) (UniProt Q9WMX2); experiment: two-hybrid; Yeast mating: AH109 with NS5A constructs in pGBKT7, Y187 with CIDEB constructs in pGADT7; growth on SD/-Trp/-Leu/-His/-Ade and SD/-Trp/-Leu/-His with 2 mM 3-AT, 30 °C, 5 to 8 d
[2] = biological target: Flag-NS5A (from HCV-Con1, genotype 1b) (hepatitis C virus Con1 (genotype 1b)) (UniProt Q9WMX2); experiment: co-IP; HEK293T cells co-transfected with tagged CIDEB and a tagged HCV protein; lysis buffer 50 mM Tris pH 7.4, 150 mM NaCl, 0.5% NP-40, 1.0 mM EDTA; IP with anti-Flag, anti-HA or anti-GFP antibody and protein A/G beads at 4 °C; blot with anti-HA, anti-Flag or anti-NS3

B1: CIDEB in pGADT7 (activation-domain fusion) (protein, UniProt Q9UHD4 1-219)
chain: MEYLSALNPSDLLRSVSNISSEFGRRVWTSAPPPQRPFRVCDHKRTIRKGLTAATRQELLAKALETLLLNGVLTLVLEEDGTAVDSEDFFQLLEDDTCLMVLQSGQSWSPTRSGVLSYGLGRERPKHSKDIARFTFDVYKQNPRDLFGSLNVKATFYGLYSMSCDFQGLGPKKVLRELLRWTSTLLQGLGHMLLGISSTLRHAVEGAEQWQQKGRLHSY
[1]
  binding: binds

B2: HA-CIDEB (Homo sapiens), cell-death-inducing DFFA-like effector B (protein, UniProt Q9UHD4 1-219)
chain: MEYLSALNPSDLLRSVSNISSEFGRRVWTSAPPPQRPFRVCDHKRTIRKGLTAATRQELLAKALETLLLNGVLTLVLEEDGTAVDSEDFFQLLEDDTCLMVLQSGQSWSPTRSGVLSYGLGRERPKHSKDIARFTFDVYKQNPRDLFGSLNVKATFYGLYSMSCDFQGLGPKKVLRELLRWTSTLLQGLGHMLLGISSTLRHAVEGAEQWQQKGRLHSY
[2]
  binding: binds

B3: HA-CIDEB (Mus musculus) (protein, UniProt O70303 1-219)
chain: MEYLSAFNPNGLLRSVSTVSSELSRRVWNSAPPPQRPFRVCDHKRTVRKGLTAASLQELLDKVLETLLLRGVLTLVLEEDGTAVDSEDFFQLLEDDTCLMVLEQGQSWSPKSGMLSYGLGREKPKHSKDIARITFDVYKQNPRDLFGSLNVKATFYGLYSMSCDFQGVGPKRVLRELLRWTSSLLQGLGHMLLGISSTLRHVVEGADRWQWHGQRHLHS
[2]
  binding: no binding
